From patent US20050130896A1
No constants are given. Whether binding was seen depends on the method and setting. For some assays here: In cells and extracts the contact can be indirect. Some results given as binding are weak or reduced against the parent protein; the word gives no strength.

The chains behind the UniProt entries cited, without tags or fusion partners. Residues count along the entry.
UniProt P35739, residues 33-799: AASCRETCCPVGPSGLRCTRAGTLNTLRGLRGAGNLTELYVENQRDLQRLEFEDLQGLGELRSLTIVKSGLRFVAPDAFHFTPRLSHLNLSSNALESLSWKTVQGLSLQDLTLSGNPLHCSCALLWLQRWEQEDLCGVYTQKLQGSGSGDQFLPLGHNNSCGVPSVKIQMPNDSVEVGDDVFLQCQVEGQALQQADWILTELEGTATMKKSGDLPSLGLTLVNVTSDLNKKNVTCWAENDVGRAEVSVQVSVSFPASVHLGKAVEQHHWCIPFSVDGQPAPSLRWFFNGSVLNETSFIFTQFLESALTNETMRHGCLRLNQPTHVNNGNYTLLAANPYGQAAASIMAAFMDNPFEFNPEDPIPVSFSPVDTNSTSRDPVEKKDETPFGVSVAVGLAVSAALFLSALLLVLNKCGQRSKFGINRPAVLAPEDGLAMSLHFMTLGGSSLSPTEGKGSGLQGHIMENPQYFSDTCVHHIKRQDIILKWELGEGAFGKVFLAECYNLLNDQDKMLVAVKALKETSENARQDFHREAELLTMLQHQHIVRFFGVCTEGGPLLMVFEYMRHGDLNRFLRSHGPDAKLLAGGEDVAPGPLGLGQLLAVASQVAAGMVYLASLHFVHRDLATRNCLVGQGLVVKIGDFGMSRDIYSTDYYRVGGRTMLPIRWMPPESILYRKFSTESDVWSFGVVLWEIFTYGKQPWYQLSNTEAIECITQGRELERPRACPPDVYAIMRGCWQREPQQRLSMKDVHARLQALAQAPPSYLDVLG

How the values were obtained:
GST-S5a = GST-S5a (UniProt P55036); experiment: GST-S5a pull-down from lysates of transfected HEK cells
TrkA (in PC12 cells) = TrkA (in PC12 cells) (UniProt P35739); experiment: immunoprecipitation of TrkA from NGF-stimulated PC12 cells, immunoblots

binding (GST-S5a)	binding (TrkA (in PC12 cells))	Substance
binds	–	myc-tagged wild-type (WT) p62; full-length p62 (amino acids 1 to 440) (from UniProt Q13501 1-440)
–	binds	p62 (in PC12 cells) (from UniProt O08623 2-439)
